This is an account of results in patent US20200299380A1.

B1: CHG1-M-MIA-20C6 (antibody, V domains shown)
VH: QITLKESGPGILKPSQTLSLTCSFSGFSLSTSGMGVGWIRQPSGKGLEWLAHIWWDDDKYYNPSLKSQLTISKDTSRNQVFLRITSVDTADTATYYCARRTQGYFDYWGQGTTLTVSS
VL: DIVMTQSPATLSVTPGDRVSLSCRASQSISDYLHWYQQKSHESPRLLIKYASQSISGIPSRFSGSGSGSDFTLSINSVEPEDVGVYYCQNGHSFPWTFGGGTKLEIKR
B2: CHG1-M-MIA-15F9 (antibody, human IgG1, V domains shown)
VH: DVQLQESGPDLVKPSQSLSLTCTVTGYSITSGYSWHWIRQFPGNKLEWMGFIHYSGSTDYNPSLKSRISLTRDTSKNQFFLQLNSVSTEDTATYYCAKDYGHWYFDVWGAGTTVTVSS
VL: SIVMTQTPKFLLVSAGDRVTITCKASQSVSYDVAWYQQKPGQSPKLLIFYASNRYTGVPARFTGSGYGTDFTFTISTVQAEDLAVYFCQQDYSSLTFGAGTKLELK
B3: CHG1-M-MIA-10F3 (antibody, human IgG1, V domains shown)
VH: QVQLQQSAAELARPGASVKMSCKASGYTFTSYTMHWVKQRPGQGLEWIGYINPSSGYTEYNQKFKDKTTLTVDKSSTTSYMQLSSLTSDNSAVYYCARGGDWDVDWFVYWGQGTLVTVSA
VL: QIVLTQSPAIMSASPGEKVTITCSASSSISYMHWFQQKPGTSPKLWIYSTSKLASGVPARFSGSGSGTSHSLTISRMEAEDAATYYCQHRSTYPFTFGSGTKLEIK
B4: CHG1-M-MIA-19E9 (antibody, human IgG1, V domains shown)
VH: DVQLQESGPGLVKPSQSLSLTCTVTGYSITSDYAWNWIRQFPGNKLEWMGFVSYSGTTKYNPSLKSRISITRDTSENQFFLQLNSVTSEDTATYYCARGYGFDYWGQGTTLTVSS
VL: EIVLTQSPTTMAASPGEKITITCSATSSISSIYFHWYQQRPGFSPKLLIYRTSNLASGVPARFSGSGSGTSYSLTIGTMEAEDVATYYCQQGTTIPFTFGSGTKLEIK
B5: CHG1-M-MIA-6E4 (antibody, V domains shown)
VH: EVQLVESGGALVKPGGSLKLSCAASGFTFSYYAMSWVRQTPEKRLEWVATISRGGNYIYYTDSVKGRFTISRDNAKNTLYLQMTSLRSEDTAMFYCASISDYDGAWLAYWGQGTTLTVSS
VL: DVLMTQTPLSLPVSLGDQASISCRSSQSIIHTNGNTYLEWYLQKPGQSPKLLIYKISNRFSGVPDRFSGSGSGTDFTLKISRVEAEDLGVYYCFQGSHVPWTFGGGTKLEIKR
B6: CHG1-M-MIA-9C10 (antibody, human IgG1, V domains shown)
VH: QVQLQQPGAELVRPGTSVNLSCKASGYSFTRYWMNWVKQRPGQGLEWIGMIHPSDSETRLNQKFKDKATLTVDKSSSTAYMQLSSPTSEDSAVYYCGYGNFFYVMDYWGQGTSVTVSS
VL: DILLTQSPAILSVSPGERVSFSCRASQSIGTSIHWYQQRTNGSPRLLIKFASESISGIPSRFSGSGSGTDFTLNINSVESEDIADYYCQQSNFWPFTFGSGTKLEVK
B7: CHG1-M-MIA-14B4 (antibody, V domains shown)
VH: QVQLQQPGAELVRPGASVKLSCKASGYSFTSYWMNWMKQRPGQGLEWIGMIHPSDSETRLNQKFKDKATLTVDKSSSTAYMQLNSPTSEDSAVYYCAREMGPYTLDYWGQGTSVTVSS
VL: DILLTQSPAILSVSPGARVSFSCRASQNIDTSIHWYQQRTNGSPRLLIKYASESISGIPSRFSGSGSGTDFTLSINSVESEDIADYYCQQSNYWPLTFGAGTKLELK
B8: CHG1-M-MIA-12A10 (antibody, human IgG1, V domains shown)
VH: QVQLQQSGADLVRPGASVRLSCRASGYSFTNYWMNWVKQRPGQGLEWIGMIHPSDSETRLNQKFKDKATLTVDKSSNTAYMQLSSPTSEDSAIYYCARDDFFTMDYWGQGTSVTVSS
VL: DILLTQSPAILSVSPGERVSFSCRASQNIVTSIHWYQQSTNGSPRLLIKYASESISGIPSRFSGSGSGTDFTLTINSVESEDVADYYCQQSNIWPLTFGAGTKLELK

Results are given in words; binding and its absence hold for the method and conditions named. A result given as binding can be weak or reduced; the word gives no strength.

One assay addresses MIC #2-7 Macaca fascicularis protein (Macaca fascicularis). The assay can be described thus: flow cytometry on Baf/3 cells transfected with Macaca fascicularis MIC. In general terms: Flow cytometry measures light scatter and fluorescence of single cells or particles in a stream.
Turning to B1, the binding result is “binds”.

Regarding B2, the binding entry was “binds”.

Consider B3, for which the binding result is recorded as “binds”.

For B4, the binding entry is recorded as “binds”.

In the case of B5, the binding result was “binds”.

As for B6, the binding entry was “binds”.

With B7, the binding result is “binds”.

B8: the binding result was “binds”.

A further assay deals with MIC #9-1 Macaca fascicularis protein (Macaca fascicularis). The description is as above.
With B5, the binding entry is on record as “binds”.
